Source: PubChem BioAssay AID1259425 (University of Nebraska Medical Center, 2018)

Test: 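Find knockdowns that reproduce the gene expression pattern seen when KSR1 is lost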 (primary screen)
System: HCT116 human colon cancer cells
Reagent: siRNA pool against human genes, 50 nM siRNA
Detection: 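After 50 nM siRNA pool, branched-DNA assay measures six marker transcripts per well, minus blank, normalised to the geometric mean of two housekeeping transcripts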
Direction: BNIP3L mRNA: higher = more BNIP3L transcript after knockdown
The whole screen tested about 14,000 reagents; below is an unselected part. Further read-outs or replicates are left out here. Reagent sequences are not shown. Not stated in the record: the time to read-out.

gene knocked down,"BNIP3L mRNA, set 1"
GORASP2,0.0431
KCNK10,0.151
LTAP1,0.0991
RASGRP4,0.0823
CLSPN,0.125
RXFP3,0.0955
TUBD1,0.0441
AVEN,0.0987
RABL6,0.127
MSH4,0.0364
MOXD1,0.0845
SDCBP2,0.0574
SRP19,0.117
EXOG,0.118
ATP8A2,0.124
DHX38,0.0341
LINC00626,0.246
TAF1L,0.0843
SET,0.178
MTCP1,0.203

Quoted from the listing for reference:
gene knocked down,"BNIP3L mRNA, set 1"
TAF1L,0.0843
SET,0.178
MTCP1,0.203
